± gives the standard deviation. The entries are a selection whose mix differs from that of the whole data set. Many of these values have a large error.

In the experiment the test system is MIWI (PIWIL1) piRISC loaded with piRNA #2 (30 nt). The experiment can be described thus: pre-steady-state target cleavage rate (min^-1); MIWI and MILI are mouse PIWI proteins and EfPiwi is from a freshwater sponge; tags in brackets are library labels; higher = faster piRNA-guided slicing of the target. Conditions: guide: piRNA #2 5'p-UUAGGUAACCCAGUAGAUCCAGAGGAAUUC; auxiliary factor: 500 nM mouse GTSF1. The method in brief: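 Cleave-'n-Seq: a transcribed, DNA-blocked target RNA library (0.1 nM) was mixed with 1 nM active affinity-purified piRISC carrying one synthetic guide, with or without 500 nM GTSF1 partner protein, in HEPES–potassium acetate buffer at 33 °C for 0–8 or 0–960 min. Uncleaved targets were sequenced and normalised to depth and to weakly complementary targets. Three trials were pooled, and k3 was capped at 0.0001 min^-1. The pre-steady-state cleavage rate came from a burst-and-steady-state fit.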
Take CUUAAGGAGUGGAUCUACUUGGGUUACCUAA: the “pre-steady-state target cleavage rate” value was determined as 0.000138 ± 0.034.
As to CUUAAGGAGACGAUCUAGUGGGUUACCUAA, the “pre-steady-state target cleavage rate” value is 0.000935 ± 0.0058.
Turning to CUUAAGGAGACCUUCUACUGGCUAACCUAA, the “pre-steady-state target cleavage rate” value came out at 0.00122 ± 0.0083.
With CUUAAGGAGACCUAGUACUGGGUAUACCUAA, the “pre-steady-state target cleavage rate” value came out at 0.00246 ± 0.0045.
For CUUAAGGAGACCUAGAACUGGGUUUGCUAA the value was 0.000537 ± 0.012; for CUUAAGGAGACGAUCUACUGGGAUACCUAA, 0.000343 ± 0.018; for GAAUUCCUCUGGAUCAUGUGGGUUACCUAA, 0.000852 ± 0.01.
As to CUUAAGGAGAGGAUCUUCUGCGUUACCUAA, the “pre-steady-state target cleavage rate” value was found to be 0.00197 ± 0.0042.
With CUUAAGGAGACGAUCUACUGGCAUACCUAA, the “pre-steady-state target cleavage rate” value came to 0.00063 ± 0.012.
With CUUAAGGAGAGGAUCUUCUGGGUUACCUAA, the “pre-steady-state target cleavage rate” value was 0.002 ± 0.0058.
Then CUUAAGGAGACCUACUGCUGGGUUACCUAA, with 0.00125 ± 0.0047; and “CAAUUCCUCUGGAUCUAGACCCAAUGGAUA [g14:g29:cont:t1A]”, with less than 0.0001; and CAAUUCCUCUCGAUCUACUGCGUUACCUAA, with 0.907 ± 0.084.
With CAAUUCCUCUAGAUCUACUGGGUUACCUAA, the “pre-steady-state target cleavage rate” value came out at 0.807 ± 0.047.
CUUAAGGAGUGGAUCUUCUGGCUUACCUAA: the “pre-steady-state target cleavage rate” value worked out at 0.000408 ± 0.024.
In the case of CUUAAGGACUGGAUCAACUGGGUUACCAAA, the “pre-steady-state target cleavage rate” value amounted to 0.0143 ± 0.016.
Regarding CUUAAGGAGUGCUACUACUGGGUUACCUAA, the “pre-steady-state target cleavage rate” value worked out at 0.00411 ± 0.0074.
Then CUUAAGGAGAGGAUCUACAGGGUUACCUAA, with 0.00312 ± 0.004; and CUUAAGGAGACCUACUACUGGGCUACCUAA, with 0.000965 ± 0.015; and CUUAAGGACUGGAACUACUGGGUUAGCUAA, with 0.0152 ± 0.017.
On to CUUAAGGAGACCUUCUACUGGGUGACCUAA, for which the “pre-steady-state target cleavage rate” value was 0.00128 ± 0.0091.
In the case of CUUAAGGAGUGGAUCAACUGGGAUACCUAA, the “pre-steady-state target cleavage rate” value was found to be 0.00133 ± 0.0083.
Turning to CUUAAGGAGAGGAUCUACACCGUUACCUAA, the “pre-steady-state target cleavage rate” value worked out at 0.00184 ± 0.0027.
Regarding CUUAAGGAGACCUACUACUGGGUUACCCUAA, the “pre-steady-state target cleavage rate” value amounted to 0.0013 ± 0.0045.
For CUUAAGGAGACGAUCUACUGCGUUACCAAA the value was 0.000872 ± 0.0034.
In the case of CUUAAGGAGACCUACUUCUGGCUUACCUAA, the “pre-steady-state target cleavage rate” value was found to be 0.000973 ± 0.007.
For CUUAAGGAGAGGAUCUACCUGGGUUACCUAA, the “pre-steady-state target cleavage rate” value was 0.000779 ± 0.011.
Regarding “CUUAAGGAGACGAUCUACUGGGUUACCUAG [g2:g19:cont:t1G]”, the “pre-steady-state target cleavage rate” value worked out at 0.00343 ± 0.0043.
For CUUAAGGACUGGAUCUACUGGGUUAGGUAA, the “pre-steady-state target cleavage rate” value was 0.00227 ± 0.015.
In the case of CUUAAGGAGUGGAUCUACUGGCAUACCUAA, the “pre-steady-state target cleavage rate” value came out at 0.000352 ± 0.024.
Turning to CUUAAGGAGACGAUCUACUGGGUUUGCUAA, the “pre-steady-state target cleavage rate” value worked out at 0.000231 ± 0.0081.
Take CUUAAGGAGACGAUCUACUUGGUUACCUAA: the “pre-steady-state target cleavage rate” value is 0.0013 ± 0.0043.
Consider CUUAAGGAGACCUUCUACUGGGUUAGCCUAA, for which the “pre-steady-state target cleavage rate” value is 0.00178 ± 0.0066.
As for CUUAAGGAGAGGAUCACUGGGUUACCUAA, the “pre-steady-state target cleavage rate” value worked out at 0.00026 ± 0.02.
As to CUUAAGGACUGGUUCUUCUGGGUUACCUAA, the “pre-steady-state target cleavage rate” value turned out to be 0.00506 ± 0.011.
Regarding CUUAAGGAGACCAUCUUCUGGGAUACCUAA, the “pre-steady-state target cleavage rate” value is 0.0018 ± 0.006.
For the sequence CAAUUCCUCUGGAUCUCUGGGUUACCUAA, the “pre-steady-state target cleavage rate” value worked out at 0.00445 ± 0.0046.
Consider CUUAAGGAGUGGAUCUACUGGGAUAGCUAA, for which the “pre-steady-state target cleavage rate” value was 0.000277 ± 0.02.
Turning to CUUAAGGACUGCAUCUACUGGGUUAGCUAA, the “pre-steady-state target cleavage rate” value was determined as 0.00126 ± 0.023.
Then CUUAAGGAGACCUAGAUGUGGGUUACUAA, with 0.00016 ± 0.021; and CUUAAGGACUCCAUCUACUGGGUUACCUAA, with 0.00288 ± 0.0044.
For CUUAACCUCUGGAUCUACUCCCUUACCUAA the value was 0.00105 ± 0.013; for CUUAAGCUGUGGAUCUACUGGGUUUCCUAA, 0.0403 ± 0.019; for CAAUUCGUCUGGAUCUACUGCGUUACCUAA, 0.376 ± 0.044.
Turning to CUUAAGGAGACCUAGUACUGGGUUACCGAA, the “pre-steady-state target cleavage rate” value turned out to be 0.000539 ± 0.0087.
Turning to CUUAAGGAGUGGAACUACUGGGUUAGCUAA, the “pre-steady-state target cleavage rate” value turned out to be 0.00445 ± 0.0092.
Take CUUUUCCUCUGGAUCUACUGGAGUUACCUAA: the “pre-steady-state target cleavage rate” value came to 0.00361 ± 0.0042.
For CUUAAGGAGACCAUCUACUGGGAUACCUAA the value was 0.00087 ± 0.0065; for CUUAAGGAGACGUUCUACAGGGUUACCUAA, 0.00106 ± 0.0083.
Regarding CUUAUCCUCUGGAUCUACUGCGUUACCUAA, the “pre-steady-state target cleavage rate” value is 0.498 ± 0.055.
Consider CUUAAGGAGACCAUCUACUCGGUAACCUAA, for which the “pre-steady-state target cleavage rate” value was determined as 0.000485 ± 0.0092.
As for GAAUUCCUCUCGUUCUACUGGGUUACCUAA, the “pre-steady-state target cleavage rate” value amounted to 0.793 ± 0.058.
Then CUUAAGGAGACGAUCUAGUGGGUUUCCUAA, with 0.000884 ± 0.0084.
As to CUUAAGGACUGGAACUACUGGGUUACCAAA, the “pre-steady-state target cleavage rate” value is 0.00633 ± 0.013.
As for CUUAACCUCUGGAUCUAUCUGGGUUACCUAA, the “pre-steady-state target cleavage rate” value came to 0.002 ± 0.0057.
Then CUUAAGGAGACGAUCUAGUGGGUUACCUUA, with 0.00116 ± 0.01; and GAAUUCCUCUGGAUCUGACUGGGUUACCUAA, with 0.00311 ± 0.0046; and CUUAAGGAGACCUUCUACUGGGUAACCAAA, with 0.00115 ± 0.01.
With CUUAAGGAGACCUACUACUGGGUUACACUAA, the “pre-steady-state target cleavage rate” value stood at 0.00247 ± 0.0041.
As for CUUAAGGACUGCAUCUACUGGGUUACCUAA, the “pre-steady-state target cleavage rate” value is 0.0207 ± 0.022.
For the sequence CUUAAGGAGUCGAUCUACUGGGUUACCUAA, the “pre-steady-state target cleavage rate” value came to 0.00342 ± 0.0049.
Regarding CUUAAGGAGACCUAGUAACUGGGUUACCUAA, the “pre-steady-state target cleavage rate” value was 0.000581 ± 0.012.
CUUAAGGAGACGAUCAACUGGGUAACCUAA: the “pre-steady-state target cleavage rate” value was 0.000121 ± 0.045.
Consider CUUAAGGUCUGGAUCUAGUCGGUUACCUAA, for which the “pre-steady-state target cleavage rate” value was determined as 0.00286 ± 0.0067.
For CUUAAGGAGACCAUCUUCUGGGUAACCUAA the value was 0.00127 ± 0.0054; for CUUAAGGAGAGGAUCUACUGGCUUACCUAA, 0.00487 ± 0.0067; for CUUAAGGAGACGAUCUACUGGGAUUCCUAA, 0.00153 ± 0.0063.
Take CUUAUCCACUGCAUCUACUGGGUUACCUAA: the “pre-steady-state target cleavage rate” value amounted to 0.314 ± 0.018.
For GAAUUCCUCUGGCAUCUACUGGGUUACCUAA the value was 0.667 ± 0.17; for CUUAAGGAGACCUACGACUGGGUUACCUAA, 0.000493 ± 0.015; for CUUAAGGACUGGAUCUACUGGUUACCUAA, 0.000946 ± 0.028.

For the origin of these results see the supplement of paper PMC10338343.
